Experimental data: paper PMC10167746, “Crystal structure of MbnF: an NADPH-dependent flavin monooxygenase from Methylocystis strain SB2” (Acta Crystallographica. Section F, Structural Biology …, 2023)
These are yes or no findings as the source states them, for the method shown. Sequences can lack the tags named with a protein.

Molecular target: T1, MbnF from Methylocystis sp. strain SB2, C-terminally His6-tagged (Methylocystis sp. strain SB2)
T1 sequence: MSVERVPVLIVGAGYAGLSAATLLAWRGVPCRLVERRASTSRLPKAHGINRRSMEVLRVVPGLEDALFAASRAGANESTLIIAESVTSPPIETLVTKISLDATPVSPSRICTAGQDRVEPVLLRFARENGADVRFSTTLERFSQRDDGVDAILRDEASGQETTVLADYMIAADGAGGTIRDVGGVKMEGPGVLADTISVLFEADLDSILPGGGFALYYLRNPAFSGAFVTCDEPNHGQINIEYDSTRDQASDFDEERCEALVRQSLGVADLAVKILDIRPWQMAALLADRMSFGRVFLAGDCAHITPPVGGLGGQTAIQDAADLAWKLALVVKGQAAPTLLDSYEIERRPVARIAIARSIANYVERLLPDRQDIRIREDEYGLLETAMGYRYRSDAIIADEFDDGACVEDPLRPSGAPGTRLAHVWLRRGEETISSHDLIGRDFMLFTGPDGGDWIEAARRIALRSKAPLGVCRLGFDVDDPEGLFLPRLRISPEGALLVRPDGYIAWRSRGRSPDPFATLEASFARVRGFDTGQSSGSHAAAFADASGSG
Experiment: condition: only acidic conditions (C4 column, 0.1% formic acid gradient); ESI-MS after a C4 column under acidic conditions; Restek Ultra C4 column, water + 0.1% formic acid/acetonitrile + 0.1% formic acid gradient; mixture of 1 mg/ml MbnA, 500 µM MbnF, 250 mM NaCl, 50 mM HEPES pH 7.4; both purified

- binding: no binding
B1: MbnA peptide (methanobactin MB-SB2 precursor peptide) (peptide)
peptide: IRIAKRITLNVIGRASARCASTCAATNG
notes: MbnA, precursor peptide of methanobactin MB-SB2, Methylocystis sp. strain SB2; the natural precursor may have further residues at its N-terminus; also called MB-SB2 peptide precursor; source: synthetic peptide, bought: AnaSpec (~90% pure)
